# Some of the results follow.
# Amino acid sequences for entries named in this document (tags omitted). A change or cut given only in a name is not applied to a line headed by its entry.
# UniProt O43396: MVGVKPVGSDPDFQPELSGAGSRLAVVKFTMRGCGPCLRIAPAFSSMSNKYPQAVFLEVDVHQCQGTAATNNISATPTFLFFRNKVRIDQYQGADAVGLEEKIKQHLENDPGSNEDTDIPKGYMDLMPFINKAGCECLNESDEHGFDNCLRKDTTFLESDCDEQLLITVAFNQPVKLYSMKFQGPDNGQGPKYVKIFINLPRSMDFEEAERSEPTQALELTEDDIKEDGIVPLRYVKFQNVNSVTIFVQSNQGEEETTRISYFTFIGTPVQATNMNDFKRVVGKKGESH
# UniProt Q9BZF9: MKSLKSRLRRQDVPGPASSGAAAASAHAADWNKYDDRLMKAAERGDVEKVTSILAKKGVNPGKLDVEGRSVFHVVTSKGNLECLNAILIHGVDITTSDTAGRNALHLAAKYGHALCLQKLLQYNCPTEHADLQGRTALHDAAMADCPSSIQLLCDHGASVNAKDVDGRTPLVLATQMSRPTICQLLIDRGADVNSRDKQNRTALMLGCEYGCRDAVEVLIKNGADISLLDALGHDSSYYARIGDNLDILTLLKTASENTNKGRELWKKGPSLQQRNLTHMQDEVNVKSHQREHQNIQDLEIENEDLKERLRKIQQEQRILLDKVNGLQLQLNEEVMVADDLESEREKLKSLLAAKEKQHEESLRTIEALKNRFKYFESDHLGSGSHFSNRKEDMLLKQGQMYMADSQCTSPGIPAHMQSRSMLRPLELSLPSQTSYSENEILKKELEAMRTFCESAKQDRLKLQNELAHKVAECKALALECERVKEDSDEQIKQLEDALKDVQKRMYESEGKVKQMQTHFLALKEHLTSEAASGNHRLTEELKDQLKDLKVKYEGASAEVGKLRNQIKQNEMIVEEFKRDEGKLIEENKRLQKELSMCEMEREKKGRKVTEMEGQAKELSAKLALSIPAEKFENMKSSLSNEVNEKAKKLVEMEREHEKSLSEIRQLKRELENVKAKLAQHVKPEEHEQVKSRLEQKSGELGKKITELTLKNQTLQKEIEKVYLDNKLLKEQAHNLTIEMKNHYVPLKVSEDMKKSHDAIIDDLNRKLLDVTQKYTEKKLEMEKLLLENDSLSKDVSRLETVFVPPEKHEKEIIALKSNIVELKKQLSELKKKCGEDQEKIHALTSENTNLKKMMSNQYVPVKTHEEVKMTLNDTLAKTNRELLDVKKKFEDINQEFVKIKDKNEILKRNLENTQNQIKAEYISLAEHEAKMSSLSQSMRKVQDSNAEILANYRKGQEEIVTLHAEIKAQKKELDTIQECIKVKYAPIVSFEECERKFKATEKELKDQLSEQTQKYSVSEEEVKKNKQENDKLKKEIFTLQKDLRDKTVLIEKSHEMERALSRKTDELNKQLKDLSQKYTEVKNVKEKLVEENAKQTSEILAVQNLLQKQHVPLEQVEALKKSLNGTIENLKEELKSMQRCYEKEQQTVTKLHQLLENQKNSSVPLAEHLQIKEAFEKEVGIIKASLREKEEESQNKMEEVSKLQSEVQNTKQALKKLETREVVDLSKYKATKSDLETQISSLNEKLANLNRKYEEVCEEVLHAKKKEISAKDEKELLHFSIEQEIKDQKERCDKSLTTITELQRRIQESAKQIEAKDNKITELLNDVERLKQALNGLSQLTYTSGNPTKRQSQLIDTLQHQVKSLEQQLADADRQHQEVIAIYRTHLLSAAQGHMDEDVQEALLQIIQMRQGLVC
# UniProt Q9C0C9: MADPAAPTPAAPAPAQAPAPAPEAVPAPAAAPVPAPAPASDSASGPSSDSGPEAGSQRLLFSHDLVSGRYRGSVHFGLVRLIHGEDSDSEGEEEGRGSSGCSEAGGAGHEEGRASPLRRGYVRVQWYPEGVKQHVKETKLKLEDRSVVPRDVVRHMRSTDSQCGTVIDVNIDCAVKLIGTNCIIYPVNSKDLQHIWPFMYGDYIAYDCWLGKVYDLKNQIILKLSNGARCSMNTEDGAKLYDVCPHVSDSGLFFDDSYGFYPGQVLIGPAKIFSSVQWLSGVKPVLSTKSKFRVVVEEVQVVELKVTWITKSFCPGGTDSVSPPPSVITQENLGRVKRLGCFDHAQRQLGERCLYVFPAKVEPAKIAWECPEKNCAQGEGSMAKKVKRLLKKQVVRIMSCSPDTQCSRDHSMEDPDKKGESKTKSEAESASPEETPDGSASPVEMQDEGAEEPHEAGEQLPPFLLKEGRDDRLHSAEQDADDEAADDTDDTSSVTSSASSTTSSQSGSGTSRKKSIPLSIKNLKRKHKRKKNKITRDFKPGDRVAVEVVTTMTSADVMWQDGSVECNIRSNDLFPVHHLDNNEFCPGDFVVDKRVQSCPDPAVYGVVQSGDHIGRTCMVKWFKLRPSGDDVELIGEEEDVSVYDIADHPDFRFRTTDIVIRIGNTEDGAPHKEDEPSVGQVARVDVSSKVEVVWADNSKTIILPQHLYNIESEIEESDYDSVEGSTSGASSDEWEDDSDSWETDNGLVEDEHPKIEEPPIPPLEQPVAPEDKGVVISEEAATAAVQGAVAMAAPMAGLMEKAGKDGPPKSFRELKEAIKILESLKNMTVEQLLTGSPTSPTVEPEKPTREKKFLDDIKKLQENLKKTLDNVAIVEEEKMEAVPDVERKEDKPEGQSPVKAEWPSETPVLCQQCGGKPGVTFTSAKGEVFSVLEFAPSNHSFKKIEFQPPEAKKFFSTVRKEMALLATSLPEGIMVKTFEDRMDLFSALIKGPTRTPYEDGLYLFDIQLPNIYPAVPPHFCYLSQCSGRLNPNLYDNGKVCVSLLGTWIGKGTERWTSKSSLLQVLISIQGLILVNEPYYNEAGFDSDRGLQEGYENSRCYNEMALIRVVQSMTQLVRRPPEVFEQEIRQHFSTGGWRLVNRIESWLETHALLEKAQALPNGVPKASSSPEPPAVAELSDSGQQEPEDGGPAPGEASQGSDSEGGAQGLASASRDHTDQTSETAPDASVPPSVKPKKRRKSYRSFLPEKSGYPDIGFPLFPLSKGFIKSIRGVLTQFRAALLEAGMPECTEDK
# UniProt Q7Z3V4: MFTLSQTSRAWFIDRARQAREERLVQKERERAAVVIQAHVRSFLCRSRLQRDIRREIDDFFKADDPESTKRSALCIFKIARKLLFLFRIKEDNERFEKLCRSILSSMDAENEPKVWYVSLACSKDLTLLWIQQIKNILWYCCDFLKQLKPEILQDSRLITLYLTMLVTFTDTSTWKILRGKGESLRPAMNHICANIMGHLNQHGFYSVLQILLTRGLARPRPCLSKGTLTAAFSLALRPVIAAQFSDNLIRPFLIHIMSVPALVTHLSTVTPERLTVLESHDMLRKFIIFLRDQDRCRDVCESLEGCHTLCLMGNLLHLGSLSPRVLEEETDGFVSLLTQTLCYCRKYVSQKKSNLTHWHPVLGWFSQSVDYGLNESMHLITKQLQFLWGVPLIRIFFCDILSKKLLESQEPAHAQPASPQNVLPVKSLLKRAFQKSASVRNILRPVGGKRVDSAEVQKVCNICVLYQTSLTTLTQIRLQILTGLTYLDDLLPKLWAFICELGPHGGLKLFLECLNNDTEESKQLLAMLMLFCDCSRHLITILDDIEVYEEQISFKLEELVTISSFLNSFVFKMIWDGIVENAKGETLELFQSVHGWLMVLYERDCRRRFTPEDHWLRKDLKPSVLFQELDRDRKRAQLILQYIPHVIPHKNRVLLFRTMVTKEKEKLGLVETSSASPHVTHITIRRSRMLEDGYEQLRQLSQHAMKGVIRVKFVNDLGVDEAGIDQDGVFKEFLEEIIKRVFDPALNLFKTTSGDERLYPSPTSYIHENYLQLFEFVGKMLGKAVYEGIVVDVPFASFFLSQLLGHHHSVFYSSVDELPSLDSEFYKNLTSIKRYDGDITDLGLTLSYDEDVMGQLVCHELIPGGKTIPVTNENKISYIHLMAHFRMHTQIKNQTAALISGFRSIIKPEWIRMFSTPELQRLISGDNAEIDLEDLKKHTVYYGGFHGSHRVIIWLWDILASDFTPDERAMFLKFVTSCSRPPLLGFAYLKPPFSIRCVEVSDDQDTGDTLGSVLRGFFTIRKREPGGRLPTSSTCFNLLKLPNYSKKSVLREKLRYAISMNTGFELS
# UniProt Q8IWV7: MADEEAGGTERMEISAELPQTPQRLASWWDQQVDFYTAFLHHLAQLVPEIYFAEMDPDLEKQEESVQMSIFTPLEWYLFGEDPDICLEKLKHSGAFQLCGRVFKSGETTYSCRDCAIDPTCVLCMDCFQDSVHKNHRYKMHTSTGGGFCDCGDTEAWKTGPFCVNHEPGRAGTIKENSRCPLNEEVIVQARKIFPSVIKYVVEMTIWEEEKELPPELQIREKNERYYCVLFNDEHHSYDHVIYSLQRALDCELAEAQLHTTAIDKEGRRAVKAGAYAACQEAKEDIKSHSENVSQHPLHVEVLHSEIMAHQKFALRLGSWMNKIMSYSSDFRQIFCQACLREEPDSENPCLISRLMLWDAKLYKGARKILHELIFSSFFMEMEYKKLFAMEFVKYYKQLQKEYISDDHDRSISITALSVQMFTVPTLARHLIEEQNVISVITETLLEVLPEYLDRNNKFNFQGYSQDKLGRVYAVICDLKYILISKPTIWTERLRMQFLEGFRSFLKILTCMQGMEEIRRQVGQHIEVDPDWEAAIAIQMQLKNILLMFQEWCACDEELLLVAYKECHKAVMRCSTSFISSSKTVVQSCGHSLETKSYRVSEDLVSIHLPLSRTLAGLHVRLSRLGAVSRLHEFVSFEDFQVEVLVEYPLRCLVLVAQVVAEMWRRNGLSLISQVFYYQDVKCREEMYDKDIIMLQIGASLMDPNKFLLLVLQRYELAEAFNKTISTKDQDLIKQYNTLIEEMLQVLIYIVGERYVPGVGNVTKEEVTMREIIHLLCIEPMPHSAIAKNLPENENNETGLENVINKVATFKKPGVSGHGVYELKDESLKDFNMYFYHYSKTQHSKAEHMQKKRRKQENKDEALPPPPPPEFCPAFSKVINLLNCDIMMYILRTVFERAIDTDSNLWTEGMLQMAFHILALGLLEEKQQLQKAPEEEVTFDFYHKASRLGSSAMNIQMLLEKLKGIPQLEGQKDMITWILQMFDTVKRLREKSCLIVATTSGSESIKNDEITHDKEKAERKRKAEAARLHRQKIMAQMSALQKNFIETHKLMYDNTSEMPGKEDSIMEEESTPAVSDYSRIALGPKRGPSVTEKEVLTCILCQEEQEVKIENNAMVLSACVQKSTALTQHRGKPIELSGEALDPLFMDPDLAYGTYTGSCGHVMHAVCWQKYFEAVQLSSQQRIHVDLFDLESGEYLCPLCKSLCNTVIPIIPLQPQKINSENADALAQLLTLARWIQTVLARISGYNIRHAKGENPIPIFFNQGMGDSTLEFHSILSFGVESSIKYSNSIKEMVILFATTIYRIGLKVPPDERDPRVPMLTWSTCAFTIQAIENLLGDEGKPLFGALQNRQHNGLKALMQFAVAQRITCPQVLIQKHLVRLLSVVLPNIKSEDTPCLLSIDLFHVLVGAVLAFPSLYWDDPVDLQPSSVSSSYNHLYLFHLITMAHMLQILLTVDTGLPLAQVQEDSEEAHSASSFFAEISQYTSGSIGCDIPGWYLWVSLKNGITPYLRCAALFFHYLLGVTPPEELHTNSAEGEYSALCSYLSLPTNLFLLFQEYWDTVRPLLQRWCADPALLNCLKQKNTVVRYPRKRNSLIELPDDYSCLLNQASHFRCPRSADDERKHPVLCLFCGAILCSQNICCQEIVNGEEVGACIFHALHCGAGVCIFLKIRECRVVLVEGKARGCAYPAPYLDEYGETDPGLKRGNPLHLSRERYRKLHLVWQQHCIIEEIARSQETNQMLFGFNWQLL
# UniProt O14933: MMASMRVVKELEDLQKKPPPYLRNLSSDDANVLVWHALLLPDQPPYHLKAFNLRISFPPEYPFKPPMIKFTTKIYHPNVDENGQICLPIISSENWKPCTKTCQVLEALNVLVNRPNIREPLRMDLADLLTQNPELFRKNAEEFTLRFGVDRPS
# UniProt P49459, whole entry, looked up: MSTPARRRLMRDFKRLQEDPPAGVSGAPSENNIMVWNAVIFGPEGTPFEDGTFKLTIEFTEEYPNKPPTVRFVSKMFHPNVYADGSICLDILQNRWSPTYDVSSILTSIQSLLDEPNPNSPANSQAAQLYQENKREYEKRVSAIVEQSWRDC
# UniProt P26368, whole entry, looked up: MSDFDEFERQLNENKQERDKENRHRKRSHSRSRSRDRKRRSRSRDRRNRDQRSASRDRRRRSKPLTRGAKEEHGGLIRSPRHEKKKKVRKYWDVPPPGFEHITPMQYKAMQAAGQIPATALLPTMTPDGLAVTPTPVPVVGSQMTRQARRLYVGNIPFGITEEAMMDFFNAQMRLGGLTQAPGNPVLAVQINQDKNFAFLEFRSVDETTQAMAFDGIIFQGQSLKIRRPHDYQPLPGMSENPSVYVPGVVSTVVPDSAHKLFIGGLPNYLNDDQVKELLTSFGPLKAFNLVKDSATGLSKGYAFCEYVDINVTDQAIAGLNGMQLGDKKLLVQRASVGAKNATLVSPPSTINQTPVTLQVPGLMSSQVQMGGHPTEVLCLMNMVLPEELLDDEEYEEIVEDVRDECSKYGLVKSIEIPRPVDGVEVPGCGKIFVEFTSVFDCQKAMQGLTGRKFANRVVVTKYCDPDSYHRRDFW
# Compound: CC1Cc2ccccc2N1C(=O)C1CCCN(C1)C(=O)CCl (mixture of isomers) [TRIM25 ligand 11 (diastereomer mixture)]
# Assay: probe-labelled cysteine peptide fold change vs DMSO (competition) (log2 fold change); higher = less target engagement (more negative = stronger competition)
# Details: 10 µM; THP-1; incubation time: 4 h
# 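Also: competitive chemoproteomic profiling in live THP-1 cells with an iodoacetamide desthiobiotin (IA-DTB) probe, comparing probe-labelled peptide intensities in compound-treated cells against DMSO-treated controls.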
row,Target,probe-labelled cysteine peptide fold change
1,TXNL1_O43396_135_AGCECLNESDEHGFDNCLR (UniProt O43396),0.221
2,TXNDC5_Q8NBS9_381_IAEVDCTAER (UniProt Q8NBS9),0.0498
3,UACA_Q9BZF9_1258_KYEEVCEEVLHAK (UniProt Q9BZF9),0.0786
4,UBA6_A0AVT1_231_EIFISNITQANPGIVTCLENHPHKLETGQFLTFR,0.0137
5,UBE2O_Q9C0C9_353_CLYVFPAK (UniProt Q9C0C9),-0.218
6,UBR4_Q5T4S7_2222_HTACNEQQR (UniProt Q5T4S7),0.141
7,UBE2T_Q9NPD8_24_ELHMLATEPPPGITCWQDKDQMDDLR (UniProt Q9NPD8),-0.0769
8,UBE3B_Q7Z3V4_311_DVCESLEGCHTLCLMGNLLHLGSLSPR (UniProt Q7Z3V4),0.00532
9,UBE2Z_Q9H832_154_CPPDYPIHPPR (UniProt Q9H832),-0.0115
10,UBA52_P62987_115_CGHTNNLRPK (UniProt P62987),-0.132
11,UBA6_A0AVT1_682_IQSGHSLEGCFQVIK,0.146
12,UBR1_Q8IWV7_1197_IHVDLFDLESGEYLCPLCK (UniProt Q8IWV7),0.0747
13,TXNRD1_Q16881_577_IICNTK (UniProt Q16881),0.634
14,UAP1L1_Q3KQV9_50_AALLAELALLEPEALREHCR (UniProt Q3KQV9),0.0804
15,UBE2S_Q16763_95_IFHPNVGANGEICVNVLK (UniProt Q16763),-0.0198
16,UBE2L6_O14933_102_TCQVLEALNVLVNRPNIREPLR (UniProt O14933),-0.185
17,TYMP_P19971_280+293_CVGHALEVEEALLCMDGAGPPDLR (UniProt P19971),0.182
18,UBE2A_P49459_88_MFHPNVYADGSICLDILQNR (UniProt P49459),-0.181

# Some of the entries above, reformatted:
row | Target | probe-labelled cysteine peptide fold change
4 | UBA6_A0AVT1_231_EIFISNITQANPGIVTCLENHPHKLETGQFLTFR | 0.0137
8 | UBE3B_Q7Z3V4_311_DVCESLEGCHTLCLMGNLLHLGSLSPR (UniProt Q7Z3V4) | 0.00532

# Further results:

row,Target,probe-labelled cysteine peptide fold change
1,UBR2_Q8IWV8_1619_LINLPEDYSSLINQASNFSCPK (UniProt Q8IWV8),0.029
2,UBA3_Q8TBC4_164_QFHIIVCGLDSIIAR (UniProt Q8TBC4),-0.05
3,U2AF2_P26368_442_IFVEFTSVFDCQK (UniProt P26368),-0.109
4,UBASH3B_Q8TF42_135_AHNIFPHITLCQFFMCEDSK (UniProt Q8TF42),0.0108
5,UBR4_Q5T4S7_3677_CSASVPANPGVCGNCGENVYQCHK (UniProt Q5T4S7),0.0361
6,UBAP2_Q5T6F2_71+78_NQDECIVALHDCNGDVNK (UniProt Q5T6F2),-0.0411
7,UBA6_A0AVT1_96_CQAWDLGTNFFLSEDDVVNK,-0.0178
8,U2AF2_P26368_429_SIEIPRPVDGVEVPGCGK (UniProt P26368),0.0667
9,UBE3A_Q05086_760_YLFRPEEIELLICGSR (UniProt Q05086),-0.0125
10,UBE2V1_Q13404_71_IECGPKYPEAPPFVR (UniProt Q13404),-0.243
11,UBE2O_Q9C0C9_585_SNDLFPVHHLDNNEFCPGDFVVDK (UniProt Q9C0C9),0.0368
12,UBR4_Q5T4S7_1900_RVAMCVLSSPHGR (UniProt Q5T4S7),-0.0522
13,UBE2J2_Q8N2K1_157_VFCELFPEVVEEIK (UniProt Q8N2K1),0.0301
14,UBE4A_Q14139_465_LLTFNPTYCALK (UniProt Q14139),0.0335
15,TXNL1_O43396_135+137_AGCECLNESDEHGFDNCLRK (UniProt O43396),-0.163
16,TXNL1_O43396_135_AGCECLNESDEHGFDNCLRK (UniProt O43396),-0.116
17,UBL5_Q9BZL1_18_CNTDDTIGDLK (UniProt Q9BZL1),0.0262

# From the supplement of paper PMC12067093, “Discovery and optimisation of a covalent ligand for TRIM25 and its application to targeted protein ubiquitination” (Chemical Science, 2025)
